In publication PMC3098239:
These are yes or no findings as the source states them, for the method shown. Binding seen in cells or lysates may run through a third protein. Some results given as binding are weak or reduced against the parent protein; the word gives no strength. Tags and fused reporters may be left off the sequences shown.

What was measured:
Experiment in all cases: co-IP; HEK293T cells cotransfected with HA-MARCH5 construct and Flag-TANK; lysis in TBS (50 mM Tris-Cl pH 7.4, 150 mM NaCl) with 1% Triton-X 100; immunoprecipitated with anti-HA, blotted with anti-Flag; 4°C
[1] = target: T1, HA-MARCH5 (wild type) (mouse (from the printed RefSeq NP_081590; HA-MARCH5 is set apart from HA-hMARCH5 in Figure 1)) (UniProt Q3KNM2)
T1 sequence: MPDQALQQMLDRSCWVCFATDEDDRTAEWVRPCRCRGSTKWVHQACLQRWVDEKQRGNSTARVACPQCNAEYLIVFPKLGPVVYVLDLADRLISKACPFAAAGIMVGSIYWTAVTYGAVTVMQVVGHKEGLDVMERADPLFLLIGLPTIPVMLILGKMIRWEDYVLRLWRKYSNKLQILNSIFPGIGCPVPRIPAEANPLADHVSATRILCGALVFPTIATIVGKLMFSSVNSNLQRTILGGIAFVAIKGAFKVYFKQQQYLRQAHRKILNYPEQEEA

[2] = target: T2, HA-MARCH5 ΔRING (mouse (from the printed RefSeq NP_081590)) (UniProt Q3KNM2)
T2 sequence: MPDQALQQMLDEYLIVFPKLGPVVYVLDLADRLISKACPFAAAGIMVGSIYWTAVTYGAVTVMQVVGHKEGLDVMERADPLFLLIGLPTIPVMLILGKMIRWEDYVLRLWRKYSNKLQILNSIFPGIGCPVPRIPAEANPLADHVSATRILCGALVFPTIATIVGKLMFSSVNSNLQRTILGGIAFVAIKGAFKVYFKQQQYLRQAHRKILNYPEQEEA

[3] = target: T3, MARCH5-DM, the C-terminal transmembrane domain truncation (Δ105-246 a.a.) (mouse (from the printed RefSeq NP_081590)) (UniProt Q3KNM2)
T3 sequence: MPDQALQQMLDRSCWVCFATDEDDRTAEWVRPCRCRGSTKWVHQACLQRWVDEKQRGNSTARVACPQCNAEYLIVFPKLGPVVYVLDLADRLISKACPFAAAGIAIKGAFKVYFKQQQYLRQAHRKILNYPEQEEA

binding [1]: binds
binding [2]: binds
binding [3]: binds
B1: Flag-TANK (wild type) (protein, UniProt P70347-2 1-414)
chain: MDKNIGEQLNRAYEAFRQACMDRDSAVRELQQKQTENYEQRIREQQEQLSFQQNLIDRLKSQLLLVDSSRDNSYGYVPLLEDSDRRKNNLTLDEPHDKVKLGTLRDKQSKVRRQEVSSGKESAKGLNIPLHHERDNIEKTFWDLKEEFHRICLLAKAQKDHLSKLNIPDIATDTQCSVPIQCTDKTEKQEALFKPQAKDDINRGMSCVTAVTPRGLGRDEEDTSFESLSKFNVKFPPMDNDSIFLHSTPEAPSILAPATPETVCQDRFNMEVRDNPGNFVKTEETLFEIQGIDPITSAIQNLKTTDKTNPSNLRATCLPAGDHNVFYVNTFPLQDPPDAPFPSLDSPGKAVRGPQQPFWKPFLNQDTDLVVPSDSDSELLKPLVCEFCQELFPPSITSRGDFLRHLNTHFNGET
